From PubChem BioAssay AID1671190 (National Center for Advancing Translational Sciences (NCATS), 2021)
Out of some 580,000 compounds screened, about 6,100 (1.1%) were called active. This list was built around the results that the source calls inconclusive (neither active nor inactive); the mix of calls is not that of the screen. The call rests on the fitted dose curve; in most records, active means well fitted inhibition curve with a large enough effect; inconclusive means small, poorly fitted or top-dose-only effect, or another doubt; inactive means no such curve, though single readings can be large or run the other way. A potency beside an inconclusive call is a rough fit, not a confirmed value.

Chains of the proteins cited; added tags and fusions are not shown. Lines headed by an entry give the natural chain unless they say otherwise; changes in a name come on top.
UniProt P18054: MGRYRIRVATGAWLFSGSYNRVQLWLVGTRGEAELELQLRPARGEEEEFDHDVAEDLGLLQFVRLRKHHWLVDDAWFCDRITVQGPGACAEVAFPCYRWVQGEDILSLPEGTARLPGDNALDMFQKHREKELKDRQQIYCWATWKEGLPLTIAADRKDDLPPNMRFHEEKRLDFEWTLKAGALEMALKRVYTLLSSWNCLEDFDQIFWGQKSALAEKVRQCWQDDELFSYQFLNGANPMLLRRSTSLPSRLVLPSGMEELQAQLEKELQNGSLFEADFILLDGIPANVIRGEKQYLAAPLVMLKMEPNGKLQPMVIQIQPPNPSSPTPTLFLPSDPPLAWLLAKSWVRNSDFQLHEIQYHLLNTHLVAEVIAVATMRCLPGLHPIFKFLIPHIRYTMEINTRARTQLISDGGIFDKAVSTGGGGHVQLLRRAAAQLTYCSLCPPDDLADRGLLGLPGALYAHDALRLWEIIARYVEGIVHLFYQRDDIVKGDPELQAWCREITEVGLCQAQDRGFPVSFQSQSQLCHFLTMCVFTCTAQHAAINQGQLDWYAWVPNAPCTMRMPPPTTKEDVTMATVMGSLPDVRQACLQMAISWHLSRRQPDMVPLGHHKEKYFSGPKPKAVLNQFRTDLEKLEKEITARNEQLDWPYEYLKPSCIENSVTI

Target: Polyunsaturated fatty acid lipoxygenase ALOX12 (Homo sapiens) (UniProt P18054)
Assay: Primary qHTS assay for inhibitors of human arachidonate 12S-lipoxygenase (ALOX12): Round 2
Conditions: purified 12hLO, xylenol orange hydroperoxide absorbance; activity change, negative = inhibition: at 108 µM (top of the series) unless noted
In short: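 Purified human 12hLO at 150 nM in 25 mM Hepes, 0.01% Triton X-100, pH 7.0, preincubated 15 min at room temperature with compound. Reaction started with 40 uM arachidonic acid, 30 min at room temperature. Hydroperoxide measured by Fe-xylenol orange, 573/405 nm absorbance ratio.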
On the % scale 0 is the no-effect control and ±100 the full control effect; potency means the concentration at half of the fitted maximal effect.

Compound	Potency	activity change, negative = inhibition
COc1ccc(N2CCN(C(c3cc(OC)ccc3OC)c3nnnn3CC3CCCO3)CC2)cc1 (stereo not given)	inconclusive: 1 µM [inhibitor, full curve, poor fit]	
O=C(/C=C/c1ccc(O)c(O)c1)c1ccc(O[C@@H]2O[C@H](CO)[C@@H](O)[C@H](O)[C@H]2O)c(O)c1O	inconclusive: 39.8 µM [inhibitor, partial curve, poor fit]	
COc1cc(Cl)c(C)cc1NC(=O)CSc1sc2c(O)cc(=O)[nH]c2c1C#N	inconclusive: 28.2 µM [inhibitor, partial curve, poor fit]	
Cc1cc(C)nc(-n2nc(C)c(Oc3ccccc3O)c2C)n1		inactive: 5.87%
COC(=O)c1c(C)sc(-c2c(-c3ccc(OC)c(F)c3)[nH]c3c2c(=O)n(C)c(=O)n3C)c1O		inconclusive: -33.1% [inhibitor]
CC1(C)CC(=O)C2=C(C1)NC1=C(C(=O)CC(C)(C)C1)C2c1ccc(C#N)cc1		inactive: -20.7%
O=C(C1CCCC1)N1CCc2nc(C3CC3)nc(-c3ccc(Cl)cc3)c2C1		inactive: 5.42%
C[C@@H](C(=O)Nc1nc2ccc(F)cc2s1)N1C(=O)C2CC=CCC2C1=O (stereo not given in full)	inconclusive: 44.7 µM [inhibitor, partial curve, poor fit]	
COc1ccc(NC(=O)CSc2ncc(-c3ccc(F)cc3)o2)cc1OC		inactive: -26.8%
Cc1ccc(NC(=O)c2ncn(CC(=O)N[C@H](CO)Cc3c[nH]c4ccccc34)n2)cc1C	inconclusive: 28.2 µM [inhibitor, partial curve, poor fit]	
COCCNCC(=O)Nc1ccc(OC(F)(F)F)cc1	inconclusive: 3.16 µM [inhibitor, full curve, poor fit]	
Clc1ccc(-n2nnc(-c3cccnc3)n2)cc1Cl	inconclusive: 89.1 µM [inhibitor, partial curve, poor fit]	
COc1ccc(C2C(C(C)=O)=C(O)C(=O)N2c2ccc(O)cc2)cc1 (stereo not given)	inconclusive: 8.91 µM [inhibitor, full curve, poor fit]	
Cc1cccc(SCC(=O)Nc2ccccc2[N+](=O)[O-])c1		inactive: -7.83%
COCCSc1ccccc1C(=O)NCc1ccco1	inconclusive: 35.5 µM [inhibitor, partial curve]	
CC1=C(C(=O)Nc2cc(C)cc(C)c2)C2(CCCCCC2)OC1=O		inactive: 1.53%
CCN(CC)S(=O)(=O)c1ccc(C(=O)Nc2cc(C)on2)cc1		inactive: -5.12%
OC(COc1ccc(Nc2ccccc2)cc1)COc1ccc(Nc2ccccc2)cc1	inconclusive: 28.2 µM [inhibitor, partial curve, poor fit]	
CN(C(=O)CNC(=O)c1ccc(Br)o1)C1CCCCC1		inactive: 494%
CC(=O)N1CCN(C(=O)C[C@@H]2c3nc(NC(=O)C4CCCCC4)sc3C[C@@H]3[C@](C)(CO)[C@H](O)CC[C@]32C)CC1		inactive: -19.9%

A second format for part of the listing above:

| Compound | Potency | activity change, negative = inhibition |
| --- | --- | --- |
| COC(=O)c1c(C)sc(-c2c(-c3ccc(OC)c(F)c3)[nH]c3c2c(=O)n(C)c(=O)n3C)c1O |  | inconclusive: -33.1% [inhibitor] |
| Cc1ccc(NC(=O)c2ncn(CC(=O)N[C@H](CO)Cc3c[nH]c4ccccc34)n2)cc1C | inconclusive: 28.2 µM [inhibitor, partial curve, poor fit] |  |

Remaining list, next part

Compound	Potency	activity change, negative = inhibition
CNC(=O)C1(N2CCC[C@H]2C(=O)N(C)CCN(C)C)CCOCC1	inconclusive: 31.6 µM [inhibitor, partial curve]	
CCN(CC)C(=O)C1CCCN(c2ccc([N+](=O)[O-])cc2/C=N/NC(=O)c2cccc(O)c2)C1 (stereo not given)		inactive: 0%
O=C(Nc1c2c(nn1-c1ccccc1)CS(=O)(=O)C2)C1CC1	inconclusive: 112 µM [inhibitor, single point]	
Cc1oc2c(c1C(=O)N(C)C)CN(Cc1ccc(Br)o1)CC2	inconclusive: 7.94 µM [inhibitor, full curve]	
Cc1cc(C(=O)N2CCC(n3c(C)cnc3C3CCC3)CC2)nn1C		inactive: 1.36%
COc1cccc(C(c2sc3nc(-c4ccco4)nn3c2O)N2CCN(C)CC2)c1 (stereo not given)	inconclusive: 5.62 µM [inhibitor, full curve, poor fit]	
Cc1ccc(C2=NN=C(NC(=O)CSc3nc(C)cc(C)n3)SC2)cc1	inconclusive: 44.7 µM [inhibitor, partial curve, poor fit]	
COc1ccc(Oc2ncc3nc(-c4cccc(C#N)c4)c(=O)n(CCC#N)c3n2)cc1	inconclusive: 15.8 µM [inhibitor, partial curve, poor fit]	
COc1ccc(CCNC(=O)Cn2ccn3nc4c(c3c2=O)CCCCC4)cc1OC	inconclusive: 44.7 µM [inhibitor, partial curve]	
COc1ccc(S(=O)(=O)N2CCCCC2)cc1NC(=O)c1nn(CC(C)C)c(=O)c2ccccc12	inconclusive: 35.5 µM [inhibitor, single point]	
COc1ccc(S(=O)(=O)Oc2ccc3c(c2)O/C(=C\c2ccc(C(C)C)cc2)C3=O)cc1	inconclusive: 158 µM [inhibitor, partial curve, poor fit]	
COc1ccc(C(=O)Oc2cc(-c3ccc(OC)c(OC)c3)cc(=O)c3c(C)oc(C)c23)cc1	inconclusive: 112 µM [inhibitor, single point]	
Cc1cc(C([O-])=C(C(=S)Nc2ccccc2)[n+]2ccccc2)c(C)n1-c1ccccc1		inconclusive: -34% [inhibitor]
O=C(N=Nc1c(O)n(Cc2ccccc2)c2ccccc12)c1cc2ccccc2cc1O	inconclusive: 8.91 µM [inhibitor, full curve, poor fit]	
N#CC1(NC(=O)COc2ccccc2[N+](=O)[O-])CCCCC1	inconclusive: 44.7 µM [inhibitor, partial curve, poor fit]	
CN=c1nc(-c2ccccc2)n(-c2ccccc2)s1	inconclusive: 4.47 µM [inhibitor, full curve, poor fit]	
CSc1nn(CC(=O)Nc2cc(C)ccc2C)c(N)c1S(=O)(=O)c1ccccc1		inactive: -24.2%
NC(N)=Nc1nc(CSCCC(N)=NS(N)(=O)=O)cs1	inconclusive: 0.137 µM [inhibitor, single point]	
CN(C)Cc1ccccc1-c1nc(N(C)C)c2ccccc2n1	inconclusive: 4.47 µM [inhibitor, full curve, poor fit]	
Cc1ccc(OCC(=O)Nc2ccc(O)c(C(=O)O)c2)cc1C	inconclusive: 6.31 µM [inhibitor, full curve, poor fit]	
